Assay results taken from patent US11752215B2, “Targeting tumor cells with chemotherapeutic agents conjugated to anti-matriptase antibodies by in vivo cleavable linking moieties” (priority 2016, dated 2023).
Some of these results come from one statement about several compounds together.

Settings: DOX 2 mg/kg

For `COc1cccc2c1C(=O)c1c(O)c3c(c(O)c1C2=O)C[C@@](O)(C(=O)CO)C[C@@H]3OC1CC(N)C(O)C(C)O1` (stereo partly drawn) [DOX, (8S,10S)-10-(4-amino-5-hydroxy-6-methyl-tetrahydro-2H-pyran-2-yloxy)-6,8,11-trihydroxy-8-(2-hydroxyacetyl)-1-methoxy-7,8,9,10-tetrahydrotetracene-5,12-dione], the “loss of average weights of mice compared to untreated control” value was “less than 15%”.
